Values from PubChem BioAssay AID1259254 (NCATS, 2017).
Purpose: 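Genome-wide screen for genes that prevent DNA re-replication in cancer cells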 (primary screen). Cell system: human HCT116 colorectal cancer cells. Knock-down reagent: single siRNA against human genes. Timing: 3 days. Detection: 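Imaged Hoechst DNA stain sorts each cell into a cycle phase by DNA amount; per plate, G2 fraction set to 0% for non-targeting and 100% for GMNN siRNA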. Direction: G2 robust z-score and G2 cells, % of GMNN control: higher = more G2 cells, more excess DNA replication. Hit rule: 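An siRNA counts as active if its G2 robust z-score lies at least 5 MADs above the screen median; here such calls match roughly 38% of GMNN control or more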.
This is an unselected part of about 59,000 reagents tested. About 1,550 of them (2.6%) count as active. 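G2 share is only a proxy for re-replication; each gene was hit by three separate siRNAs, and active genes were retested.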 Entries without a mark were called inactive. Reagents against one gene are numbered here. Not all columns of the deposit are shown. No sequences are given here. Not stated in the record: the amount of reagent.

OR10K2 #1 → G2 robust z-score: -0.308; G2 cells, % of GMNN control: 0.801
OR10K2 #2 → G2 robust z-score: 4.91; G2 cells, % of GMNN control: 37.5
OR10K2 #3 → G2 robust z-score: -1.05; G2 cells, % of GMNN control: -4.45
DKK1 #1 → G2 robust z-score: -1.16; G2 cells, % of GMNN control: -5.23
DKK1 #2 → G2 robust z-score: 0.814; G2 cells, % of GMNN control: 8.69
DKK1 #3 → G2 robust z-score: 0.812; G2 cells, % of GMNN control: 8.68
PTPN11 #1 → G2 robust z-score: 6.36 (active); G2 cells, % of GMNN control: 47.7
PTPN11 #2 → G2 robust z-score: -0.977; G2 cells, % of GMNN control: -3.91
PTPN11 #3 → G2 robust z-score: -0.742; G2 cells, % of GMNN control: -2.25
FAM218A #1 → G2 robust z-score: 0.393; G2 cells, % of GMNN control: 5.73
FAM218A #2 → G2 robust z-score: -1.07; G2 cells, % of GMNN control: -4.54
FAM218A #3 → G2 robust z-score: -0.542; G2 cells, % of GMNN control: -0.847

4 entries already listed, arranged by “G2 robust z-score”, ascending:
DKK1 #1 → G2 robust z-score: -1.16; G2 cells, % of GMNN control: -5.23
OR10K2 #3 → G2 robust z-score: -1.05; G2 cells, % of GMNN control: -4.45
DKK1 #3 → G2 robust z-score: 0.812; G2 cells, % of GMNN control: 8.68
DKK1 #2 → G2 robust z-score: 0.814; G2 cells, % of GMNN control: 8.69

The results go on.
ARHGEF11 #1 → G2 robust z-score: -0.423; G2 cells, % of GMNN control: -0.00785
ARHGEF11 #2 → G2 robust z-score: -0.807; G2 cells, % of GMNN control: -2.71
ARHGEF11 #3 → G2 robust z-score: 1.03; G2 cells, % of GMNN control: 10.2
CYTH4 #1 → G2 robust z-score: -1.18; G2 cells, % of GMNN control: -5.33
CYTH4 #2 → G2 robust z-score: -0.568; G2 cells, % of GMNN control: -1.03
CYTH4 #3 → G2 robust z-score: -0.689; G2 cells, % of GMNN control: -1.88
TRPV2 #1 → G2 robust z-score: 0.834; G2 cells, % of GMNN control: 8.83
TRPV2 #2 → G2 robust z-score: -0.879; G2 cells, % of GMNN control: -3.22
TRPV2 #3 → G2 robust z-score: 0.565; G2 cells, % of GMNN control: 6.94
CNNM3 #1 → G2 robust z-score: -0.729; G2 cells, % of GMNN control: -2.16
CNNM3 #2 → G2 robust z-score: 1.16; G2 cells, % of GMNN control: 11.1
CNNM3 #3 → G2 robust z-score: 0.511; G2 cells, % of GMNN control: 6.56
KIR3DP1 #1 → G2 robust z-score: 1.38; G2 cells, % of GMNN control: 12.7
KIR3DP1 #2 → G2 robust z-score: -0.927; G2 cells, % of GMNN control: -3.55
KIR3DP1 #3 → G2 robust z-score: 0.979; G2 cells, % of GMNN control: 9.86
CMSS1 #1 → G2 robust z-score: -0.13; G2 cells, % of GMNN control: 2.05
CMSS1 #2 → G2 robust z-score: -0.745; G2 cells, % of GMNN control: -2.27
CMSS1 #3 → G2 robust z-score: -0.0783; G2 cells, % of GMNN control: 2.42
